Laboratory results taken from US20160160179A1, “METHOD FOR OBTAINING A POPULATION OF ISOLATED BRITE ADIPOCYTES” (INSERM (INSTITUT NATIONAL DE LA SANTÉ ET DE LA RECHERCHE …, priority 2013, published 2016).
At least one compound was matched to its structure with a doubt left.

Tests used:
Type in all cases: cell-based, human
[1] = tested on: whole native progenitor cells (CD45−/CD34+/CD31−); experiment: In vitro adipogenesis of whole native progenitor cells; conditions: 3 μmol/L rosiglitazone for 3 days, ITTC medium until day 10
Text: (§1) An immuno-selection/depletion approach was developed to obtain the native progenitor cell subsets starting from 50.10^6 to 150.10^6 SVF cells. The total progenitor cell population (CD34+/CD31− cells) was obtained in two steps: immune cells were first removed using CD45 positive cell-depletion step (CD45-depletion kit from Stemcell Technologies, Grenoble, France) followed by endothelial cell depletion step using an anti-CD31-depletion kit (R&D Systems, Lille, France) according to manufacturer's protocol. To further isolate the distinct progenitor cell subsets, the Mscal-positive cells were selected from the CD45−/CD31− cells, the −/CD271 positive cells were selected from the CD45−/CD31−/MSCA1− cells and the CD45−/CD31−/MSCA1−/CD271− (−/−) cells using CD34 immuno-magnetic selection kits (MSCA1+, CD271+ and CD34+ immuno-magnetic selection kits were from Miltenyi Biotec, Paris, France). The purity of each fraction was assessed after selection by flow cytometry analyses.

−/CD271+ and −/− cells = experiment: In vitro adipogenesis of the −/CD271+ and −/− cell subsets; conditions: rosiglitazone treatment, 3 μmol/L
[2] = tested on: MSCA1+ cells (CD45−/CD34+/CD31−/CD271+/MSCA1+); experiment: In vitro adipogenesis of the immunoselected MSCA1+ cell subset
Text: as §1
Total RNAs were extracted using the RNeasy kit (Qiagen). […] RNAs were reverse-transcribed using Superscript® II kit (Invitrogen). TaqMan® Primers are listed in supplemental data Table 1.
Cells or small pieces of whole AT were fixed (paraformaldehyde 4%, room temperature for 15 min for cultured cells and up to 1 h for whole AT). […]

SMILES: CN(CCOc1ccc(CC2SC(=O)NC2=O)cc1)c1ccccn1 (centres unmarked) [rosiglitazone]
- commitment and differentiation [1]: markedly enhanced
- lipid-laden cells (−/CD271+ and −/− cells): moderate enhancement
- total cell number (−/CD271+ and −/− cells): increase in total cell number
- expression of white and brite/beige adipocyte-related genes ([2]; 3 days after exposure to adipogenic medium containing rosiglitazone, compared to the other subsets): increased expression
- total cell number ([2]; rosiglitazone treatment, 3 μmol/L): without marked changes
